{
  "sequences": {"note": "Amino acid sequences for entries named in this document (tags omitted). A change or cut given only in a name is not applied to a line headed by its entry.", "UniProt P28223, whole entry, looked up": "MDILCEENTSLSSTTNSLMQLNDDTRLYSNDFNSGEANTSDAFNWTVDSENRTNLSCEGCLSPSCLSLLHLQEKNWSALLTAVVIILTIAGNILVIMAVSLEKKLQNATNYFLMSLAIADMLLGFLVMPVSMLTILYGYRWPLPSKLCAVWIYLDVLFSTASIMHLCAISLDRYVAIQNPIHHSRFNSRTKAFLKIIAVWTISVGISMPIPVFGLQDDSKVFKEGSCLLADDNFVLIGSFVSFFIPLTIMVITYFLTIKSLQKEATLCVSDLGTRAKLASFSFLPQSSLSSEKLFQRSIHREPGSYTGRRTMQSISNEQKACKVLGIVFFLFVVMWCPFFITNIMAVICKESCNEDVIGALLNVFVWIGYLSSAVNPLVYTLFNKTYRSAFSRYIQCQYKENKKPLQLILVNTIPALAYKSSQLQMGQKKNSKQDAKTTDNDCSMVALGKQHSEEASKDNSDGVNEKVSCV", "UniProt P11229": "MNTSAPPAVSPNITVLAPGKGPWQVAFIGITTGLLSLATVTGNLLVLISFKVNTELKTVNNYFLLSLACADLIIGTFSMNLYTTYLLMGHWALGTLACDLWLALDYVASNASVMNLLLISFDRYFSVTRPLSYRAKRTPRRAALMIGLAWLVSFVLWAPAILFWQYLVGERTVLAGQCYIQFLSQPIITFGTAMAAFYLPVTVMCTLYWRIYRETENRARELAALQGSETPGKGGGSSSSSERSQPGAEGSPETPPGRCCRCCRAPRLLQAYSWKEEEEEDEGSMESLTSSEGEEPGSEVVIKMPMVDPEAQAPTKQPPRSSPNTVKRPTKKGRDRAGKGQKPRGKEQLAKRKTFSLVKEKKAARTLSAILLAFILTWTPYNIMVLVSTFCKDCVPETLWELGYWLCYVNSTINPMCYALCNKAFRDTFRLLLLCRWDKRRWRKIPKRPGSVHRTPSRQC", "UniProt P14416, whole entry, looked up": "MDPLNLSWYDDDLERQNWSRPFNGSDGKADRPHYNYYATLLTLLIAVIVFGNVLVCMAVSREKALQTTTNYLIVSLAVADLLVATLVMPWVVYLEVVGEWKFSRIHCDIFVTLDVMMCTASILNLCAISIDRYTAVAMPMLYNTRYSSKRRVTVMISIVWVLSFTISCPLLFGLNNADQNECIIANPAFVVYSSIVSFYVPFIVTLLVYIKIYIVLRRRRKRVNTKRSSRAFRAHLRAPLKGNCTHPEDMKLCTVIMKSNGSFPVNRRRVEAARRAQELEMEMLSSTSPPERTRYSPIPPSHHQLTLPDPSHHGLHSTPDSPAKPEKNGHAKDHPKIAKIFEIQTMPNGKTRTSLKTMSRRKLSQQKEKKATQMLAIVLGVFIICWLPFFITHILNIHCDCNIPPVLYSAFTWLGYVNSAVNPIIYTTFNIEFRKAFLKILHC"},
  "source": "PubChem BioAssay (Tox21)",
  "key": {"[1]": {"test": "p53 small molecule agonists, cell-based qHTS assay: qHTS cell viability counter screen (AID 1963581); note: nearly all actives have a fitted effect of over 45% in size; note: potency is the fitted concentration of half-maximal effect; for activity change, negative = cytotoxicity: % is set by controls: 0 for no effect and ±100 for the full control effect", "method_in_brief": "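Counter screen read by CellTiter-Glo luminescence (ATP content, 30 min at room temperature), run in the same wells as the beta-lactamase reporter read. HCT-116 p53RE-bla cells saw compounds for 16 h at 37 C.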"}, "[2]": {"test": "p53 small molecule agonists, cell-based qHTS assay (AID 1963582; active = well fitted activation curve with a large enough effect in the signal ratio in the repeat runs, not every such curve was filed as active; inconclusive = weak or mixed curves; the % refers to the signal ratio; note: potency is the fitted concentration of half-maximal effect; for activation: % is set by controls: 0 for no effect and ±100 for the full control effect)", "conditions": "HCT-116 p53RE-bla reporter, beta-lactamase FRET ratio, 16 h; activation: at 66 µM (top of the series) unless noted", "method_in_brief": "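Read-out is beta-lactamase FRET fluorescence after 2 h at room temperature with LiveBLAzer B/G substrate. p53 response element-bla cells were treated 16 h at 37 C with compounds in DMSO, added 5 h after seeding.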"}, "[3]": {"biological_target": "5-hydroxytryptamine receptor 2A (Homo sapiens) (UniProt P28223)", "test": "5-hydroxytryptamine receptor 2A (HTR2A) small molecule antagonists, cell-based qHTS assay (AID 1963586); note: potency is the fitted concentration of half-maximal effect; nearly all actives have a fitted effect of over 45% in size", "method_in_brief": "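CHO cells stably expressing human HTR2A were plated for 18 h at 37 C, then loaded with calcium dye for 1 h. Compounds were preincubated 5 min at room temperature before DOI (4 nM solution) was added. Kinetic fluorescence was read for 3 min.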"}, "[4]": {"biological_target": "Muscarinic acetylcholine receptor M1 (Homo sapiens) (UniProt P11229)", "test": "Cholinergic receptor muscarinic 1 (CHRM1) small molecule antagonists, cell-based qHTS assay (AID 1963588); note: potency is the fitted concentration of half-maximal effect; nearly all actives have a fitted effect of over 40% in size", "method_in_brief": "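Compounds were tested at 15 concentrations in three independent runs. Dye-loaded CHRM1-CHO cells were exposed 5 min at room temperature before stimulation by acetylcholine added at 50nM. Intracellular calcium was read kinetically on FDSS for 3 min.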"}, "[5]": {"test": "cAMP Responsive Elements (CRE) small molecule agonists, cell-based qHTS assay (AID 1963590); note: potency is the fitted concentration of half-maximal effect", "conditions": "CRE-bla HEK293T, beta-lactamase FRET ratio, 3 h; activation: at 92.4 µM (top of the series) unless noted", "method_in_brief": "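Agonist mode: compound added to CRE-bla HEK 293T cells (2,000/well, 18 h after plating) for 3 h at 37 C/5% CO2. Reporter activity detected via FRET beta-lactamase substrate, 2 h room-temperature loading.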"}, "[6]": {"test": "cAMP Responsive Elements (CRE) small molecule antagonists, cell-based qHTS assay (AID 1963591; active = well fitted inhibition curve with a large enough effect in the signal ratio in the repeat runs, not every such curve was filed as active; inconclusive = weak or mixed curves, or effect the other way; the % refers to the signal ratio; note: % is set by controls: 0 for no effect and ±100 for the full control effect)", "conditions": "CRE-bla HEK293T, beta-lactamase FRET ratio; activity change, negative = inhibition: at 92.4 µM (top of the series) unless noted", "method_in_brief": "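Antagonist mode: compounds are added alongside the adenylyl cyclase activator NKH477 (0.25 uM final) to CRE-bla HEK293T cells for 3 h. LiveBLAzer FRET substrate, 2 h at room temperature, reports bla expression.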"}, "[7]": {"biological_target": "Beta-2 adrenergic receptor (Homo sapiens) (UniProt P07550)", "test": "Adrenergic beta2 receptor (ADRB2) small molecule agonists, cell-based qHTS assay (AID 1963593); note: potency is the fitted concentration of half-maximal effect; for activation: % is set by controls: 0 for no effect and ±100 for the full control effect", "conditions": "CHO-ADRB2 cells, cAMP HTRF, 30 min; activation: at 92.4 µM (top of the series) unless noted", "method_in_brief": "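CHO cells stably over-expressing ADRB2 were plated overnight at 37C, then dosed with compounds plus a stimulation mix containing 100uM IBMX and 25uM Ro-20-1724 for 0.5hr at room temperature. cAMP was measured by HTRF competition, 1hr.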"}, "[8]": {"biological_target": "D(2) dopamine receptor (Homo sapiens) (UniProt P14416)", "test": "Dopamine D2 receptor (DRD2) small molecule antagonists, cell-based qHTS assay (AID 1963595; active = well fitted inhibition curve with a large enough effect in the signal ratio in the repeat runs, with a control signal flat; inconclusive = weak or mixed curves, or effect the other way; the % refers to the signal ratio; note: potency is the fitted concentration of half-maximal effect)", "conditions": "HEK293-DRD2 cAMP HTRF antagonist mode; activity change, negative = inhibition: at 92.4 µM (top of the series) unless noted", "method_in_brief": "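HEK293 cells stably expressing DRD2, preincubated with 0.1 mM Ro20-1724 and compounds 10 min, were stimulated with 200 nM NKH477 plus 12 nM quinpirole for 30 min at room temperature; cAMP measured by HTRF (665/620 nm).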"}, "[9]": {"biological_target": "5-hydroxytryptamine receptor 2A (Homo sapiens) (UniProt P28223)", "test": "5-hydroxytryptamine receptor 2A (HTR2A) small molecule agonists, cell-based qHTS assay (AID 1963587); note: potency is the fitted concentration of half-maximal effect; nearly all actives have a fitted effect of over 30% in size", "method_in_brief": "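HTR2A-CHO cells, plated 18 h at 37 C/5% CO2, dye-loaded 1 h at 37 C; compounds in DMSO added by pin tool (agonist mode). Intracellular calcium flux read as kinetic fluorescence on FDSS over 2 min at 1 s intervals.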"}, "[10]": {"biological_target": "Muscarinic acetylcholine receptor M1 (Homo sapiens) (UniProt P11229)", "test": "Cholinergic receptor muscarinic 1 (CHRM1) small molecule agonists, cell-based qHTS assay (AID 1963589); note: potency is the fitted concentration of half-maximal effect; nearly all actives have a fitted effect of over 35% in size", "method_in_brief": "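Agonist-mode calcium-flux screen: compounds at 15 concentrations, three independent runs, were pin-transferred onto dye-loaded human CHRM1-CHO cells. Fluorescence was then recorded kinetically every second over minutes.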"}, "[11]": {"biological_target": "Beta-2 adrenergic receptor (Homo sapiens) (UniProt P07550)", "test": "Adrenergic beta2 receptor (ADRB2) small molecule antagonists, cell-based qHTS assay (AID 1963592); note: potency is the fitted concentration of half-maximal effect; nearly all actives have a fitted effect of over 50% in size", "conditions": "CHO-ADRB2 cells, isoproterenol-stimulated cAMP HTRF ratio, 0.5 h; activity change, negative = inhibition: at 92.4 µM (top of the series) unless noted", "method_in_brief": "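Assay format: CHO-ADRB2 cells, 18-20hr seeding at 37C/5% CO2, then compound plus 1nM isoproterenol agonist mix for 0.5hr RT. Homogeneous time-resolved fluorescence cAMP detection after 1hr, expressed as 665/615 nm ratio.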"}},
  "note": "The inconclusive results got no clear call from the source; some entries with a clear call stand among them for comparison. For some of these results: Where the call is inconclusive, the potency comes from a doubtful curve fit. Calls of active or inactive are those of the source. Unless noted, calls come from the whole dose curve.",
  "data": [
    {"smiles": "CC(=O)N[C@@H](CS)C(=O)O", "values": [
      {"measurement": "Potency", "setting": "[1]", "result": "inactive"}
    ]},
    {"smiles": "CNc1ncnc2nc[nH]c12", "values": [
      {"measurement": "Potency", "setting": "[1]", "result": "inconclusive: 52.2 µM [rising, single point]"}
    ]},
    {"smiles": "CN(C)CC/C=C1\\c2ccccc2COc2ccccc21", "values": [
      {"measurement": "Potency", "setting": "[1]", "result": "inactive"}
    ]},
    {"smiles": "COc1ccc(CN2CCN(C(c3ccc(F)cc3)c3ccc(F)cc3)CC2)c(OC)c1OC", "values": [
      {"measurement": "Potency", "setting": "[1]", "result": "active: 15.8 µM"},
      {"measurement": "Potency", "setting": "[2]", "result": "inactive"},
      {"measurement": "Potency", "setting": "[3]", "result": "inconclusive: 8.18 µM [inhibitor, partial curve, poor fit]"},
      {"measurement": "Potency", "setting": "[4]", "result": "active: 2.59 µM"},
      {"measurement": "Potency", "setting": "[5]", "result": "inconclusive: 23.7 µM [fluorescent, partial curve]"},
      {"measurement": "activity change, negative = inhibition", "setting": "[6]", "result": "inconclusive: 1.36% [at 42.4 µM]"},
      {"measurement": "Potency", "setting": "[7]", "result": "inactive"},
      {"measurement": "Potency", "setting": "[8]", "result": "inconclusive: 33.5 µM [inhibitor, single point]"}
    ]},
    {"smiles": "C(/C=C/C=C/Nc1ccccc1)=Nc1ccccc1", "values": [
      {"measurement": "Potency", "setting": "[1]", "result": "inactive"}
    ]},
    {"smiles": "C/C=C(/C(=C/C)c1ccc(O)cc1)c1ccc(O)cc1", "values": [
      {"measurement": "Potency", "setting": "[1]", "result": "inconclusive: 7.07 µM [rising, partial curve]"},
      {"measurement": "Potency", "setting": "[2]", "result": "inconclusive: 5.61 µM [activator, partial curve, poor fit]"},
      {"measurement": "Potency", "setting": "[3]", "result": "inconclusive: 57.9 µM [inhibitor, partial curve, poor fit]"},
      {"measurement": "Potency", "setting": "[9]", "result": "inconclusive: 26.8 µM [activator, single point]"},
      {"measurement": "Potency", "setting": "[4]", "result": "active: 2.9 µM"},
      {"measurement": "Potency", "setting": "[5]", "result": "inconclusive: 33.5 µM [rising, partial curve, poor fit]"}
    ]},
    {"smiles": "Cc1cc(C)n(CO)n1", "values": [
      {"measurement": "Potency", "setting": "[1]", "result": "inconclusive: 4.58 µM [cytotoxic, single point]"}
    ]},
    {"smiles": "O=C(O)c1cccc(C(F)(F)F)c1", "values": [
      {"measurement": "Potency", "setting": "[1]", "result": "inactive"}
    ]},
    {"smiles": "O[C@@H](CNC[C@H](O)[C@H]1CCc2cc(F)ccc2O1)[C@@H]1CCc2cc(F)ccc2O1", "values": [
      {"measurement": "Potency", "setting": "[1]", "result": "inconclusive: 22.3 µM [cytotoxic, single point]"},
      {"measurement": "Potency", "setting": "[2]", "result": "inconclusive: 15.8 µM [rising, partial curve]"},
      {"measurement": "Potency", "setting": "[3]", "result": "active: 18.3 µM"},
      {"measurement": "Potency", "setting": "[9]", "result": "inconclusive: 23.9 µM [activator]"},
      {"measurement": "Potency", "setting": "[10]", "result": "inconclusive: 26.8 µM [rising, partial curve, poor fit]"},
      {"measurement": "Potency", "setting": "[11]", "result": "active: 0.15 µM"},
      {"measurement": "Potency", "setting": "[7]", "result": "inconclusive: 0.0668 µM [inhibitor, full curve]"},
      {"measurement": "Potency", "setting": "[8]", "result": "inconclusive: 33.5 µM [inhibitor, single point]"}
    ]},
    {"smiles": "CC(C)NCC(O)COc1cccc2[nH]ccc12", "note": "(centres undefined)", "values": [
      {"measurement": "Potency", "setting": "[1]", "result": "inconclusive: 6.3 µM"}
    ]},
    {"smiles": "NC[C@H]1O[C@H](O[C@H]2[C@H](O)[C@@H](O[C@H]3O[C@H](CO)[C@@H](O)[C@H](N)[C@H]3O)[C@H](N)C[C@@H]2N)[C@H](N)[C@@H](O)[C@@H]1O", "values": [
      {"measurement": "activity change, negative = cytotoxicity", "setting": "[1]", "result": "inactive: -25.6% [at 13.5 µM]"}
    ]},
    {"smiles": "CN1CN(C)CN(C)C1", "values": [
      {"measurement": "Potency", "setting": "[1]", "result": "inconclusive: 14.5 µM [rising, partial curve, poor fit]"}
    ]},
    {"smiles": "CCCO[Si](OCCC)(OCCC)OCCC", "values": [
      {"measurement": "Potency", "setting": "[1]", "result": "inactive"}
    ]},
    {"smiles": "Cc1ccccc1C(=O)N1CC/C(=N\\OS(=O)(=O)O)c2ccc(Cl)cc21", "values": [
      {"measurement": "Potency", "setting": "[1]", "result": "inactive"},
      {"measurement": "Potency", "setting": "[2]", "result": "inactive"}
    ]}
  ]
}
